Paper PMC10580383, “Development of Melanocortin 4 Receptor Agonists by Exploiting Animal-Derived Macrocyclic, Disulfide-Rich Peptide Scaffolds” (ACS Pharmacology & Translational Science, 2023)
These are yes or no findings as the source states them, for the method shown. Binding seen in cells or lysates may run through a third protein. Some binding calls cover weakened binding; strength is not graded here.

Chains of the proteins cited; added tags and fusions are not shown.
UniProt P32245: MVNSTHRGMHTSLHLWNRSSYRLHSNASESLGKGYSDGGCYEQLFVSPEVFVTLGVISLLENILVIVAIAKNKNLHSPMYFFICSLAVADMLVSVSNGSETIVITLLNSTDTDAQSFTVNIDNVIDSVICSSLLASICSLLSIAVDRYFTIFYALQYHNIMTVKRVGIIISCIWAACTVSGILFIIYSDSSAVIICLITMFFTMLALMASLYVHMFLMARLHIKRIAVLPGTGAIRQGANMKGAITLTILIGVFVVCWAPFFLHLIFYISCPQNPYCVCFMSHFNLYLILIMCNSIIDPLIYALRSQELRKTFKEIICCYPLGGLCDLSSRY
UniProt P56450: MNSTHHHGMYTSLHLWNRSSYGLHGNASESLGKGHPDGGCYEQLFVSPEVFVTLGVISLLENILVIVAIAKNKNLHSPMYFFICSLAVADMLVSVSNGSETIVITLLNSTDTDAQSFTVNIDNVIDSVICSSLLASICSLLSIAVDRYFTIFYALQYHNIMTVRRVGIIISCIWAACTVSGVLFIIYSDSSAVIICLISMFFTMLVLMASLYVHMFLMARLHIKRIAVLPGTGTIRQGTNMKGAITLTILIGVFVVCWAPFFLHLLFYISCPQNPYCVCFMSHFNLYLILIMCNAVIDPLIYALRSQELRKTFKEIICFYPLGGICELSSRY
UniProt P32121: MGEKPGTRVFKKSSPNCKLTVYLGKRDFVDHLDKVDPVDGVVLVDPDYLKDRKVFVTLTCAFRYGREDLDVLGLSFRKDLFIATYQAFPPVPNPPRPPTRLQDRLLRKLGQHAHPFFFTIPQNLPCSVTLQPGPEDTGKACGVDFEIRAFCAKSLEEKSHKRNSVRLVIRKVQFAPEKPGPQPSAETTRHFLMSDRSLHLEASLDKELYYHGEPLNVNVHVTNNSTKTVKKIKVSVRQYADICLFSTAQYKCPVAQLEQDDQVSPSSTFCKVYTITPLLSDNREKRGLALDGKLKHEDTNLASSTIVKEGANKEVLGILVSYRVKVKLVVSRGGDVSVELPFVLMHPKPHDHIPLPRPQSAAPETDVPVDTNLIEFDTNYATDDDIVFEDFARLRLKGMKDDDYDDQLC

Legend:
[1] = target: human melanocortin 4 receptor with C-terminally fused SmBit (human) (UniProt P32245); experiment: split reporter; nanoluciferase complementation in live cells between human MC4R-SmBit and β-arrestin-2-LgBit (cotransfection 1:10 β-arrestin-2:receptor); HBSS, furimazine; read 5 min after adding α-MSH, Pr4LP1 or Ar3LP1
[2] = target: mouse melanocortin 4 receptor fused to EGFP (mouse) (UniProt P56450); experiment: FRET or BRET; kinetic BRET in live HEK293 cells cotransfected with β-arrestin-2-nanoluciferase and mouse MC4R-EGFP (1:10); furimazine; cells treated with 10 μM peptide ligand (NDP-α-MSH, Ta1LPs, Pr4LPs, Ar3LPs, GoLPs) in HBSS; read over 35 min at 510/460 nm, vehicle subtracted

| Substance | binding [1] | binding [2] |
| --- | --- | --- |
| β-arrestin-2-LgBit (from UniProt P32121 1-409) | binds | – |
| β-arrestin-2 fused to nanoluciferase (from UniProt P32121 1-409) | – | binds |
